From the supplement of paper PMC7661543
Differences between knockout arms are mostly noise.

System: HCC-38
Test: relative cell number vs DMSO control (72 h) (% of DMSO); higher = less growth inhibition (more cells)
Description: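 QMAP-Seq: a pool of 5 breast cancer cell lines (ZR-75-1, SKBR3, HCC-38, MDA-MB-231, BT-20), each carrying 12 doxycycline-inducible Cas9 sgRNA perturbations (11 knockouts plus non-targeting sgNT), was treated with compounds for 72 h at four 10-fold doses (10 nM-10 uM or 1 nM-1 uM range). Barcodes were amplified and sequenced, and cell number was interpolated from 293T spike-in standard curves. The result is expressed as % of the median of DMSO wells. Two biological replicates.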

COc1cc2c(Oc3ccc4[nH]c(C)cc4c3F)ncnc2cc1OCCCN1CCCC1 [Cediranib]
Details | relative cell number
sgRNA knockout: sgATF3, 10 nM | 121
sgRNA knockout: sgATF3, 100 nM | 111
sgRNA knockout: sgATF3, 1000 nM | 67.9
sgRNA knockout: sgATF3, 10000 nM | 9.08
sgRNA knockout: sgATF4, 10 nM | 121
sgRNA knockout: sgATF4, 100 nM | 106
sgRNA knockout: sgATF4, 1000 nM | 61.1
sgRNA knockout: sgATF4, 10000 nM | 8.09
sgRNA knockout: sgATF6, 10 nM | 124
sgRNA knockout: sgATF6, 100 nM | 118
sgRNA knockout: sgATF6, 1000 nM | 80.4
sgRNA knockout: sgATF6, 10000 nM | 6.79
sgRNA knockout: sgATG7, 10 nM | 117
sgRNA knockout: sgATG7, 100 nM | 108
sgRNA knockout: sgATG7, 1000 nM | 74.5
sgRNA knockout: sgATG7, 10000 nM | 10.1
sgRNA knockout: sgERN1, 10 nM | 114
sgRNA knockout: sgERN1, 100 nM | 113
sgRNA knockout: sgERN1, 1000 nM | 71.4
sgRNA knockout: sgERN1, 10000 nM | 8.27
sgRNA knockout: sgHSF1, 10 nM | 124
sgRNA knockout: sgHSF1, 100 nM | 127
sgRNA knockout: sgHSF1, 1000 nM | 78.4
sgRNA knockout: sgHSF1, 10000 nM | 10.16
sgRNA knockout: sgHSF2, 10 nM | 133
sgRNA knockout: sgHSF2, 100 nM | 122
sgRNA knockout: sgHSF2, 1000 nM | 77.6
sgRNA knockout: sgHSF2, 10000 nM | 10.6
sgRNA knockout: sgKEAP1, 10 nM | 160
sgRNA knockout: sgKEAP1, 100 nM | 125
sgRNA knockout: sgKEAP1, 1000 nM | 95
sgRNA knockout: sgKEAP1, 10000 nM | 9.64
sgRNA knockout: sgNFE2L2, 10 nM | 112
sgRNA knockout: sgNFE2L2, 100 nM | 101
sgRNA knockout: sgNFE2L2, 1000 nM | 59.1
sgRNA knockout: sgNFE2L2, 10000 nM | 8.261
sgRNA knockout: sgSLC35F2, 10 nM | 118
sgRNA knockout: sgSLC35F2, 100 nM | 106
sgRNA knockout: sgSLC35F2, 1000 nM | 67.1
sgRNA knockout: sgSLC35F2, 10000 nM | 7.25
sgRNA knockout: sgXBP1, 10 nM | 117
sgRNA knockout: sgXBP1, 100 nM | 112
sgRNA knockout: sgXBP1, 1000 nM | 70.2
sgRNA knockout: sgXBP1, 10000 nM | 7.49

Nc1ncn([C@H]2C[C@H](O)[C@@H](CO)O2)c(=O)n1 [Decitabine]
Details | relative cell number
sgRNA knockout: sgATF3, 10 nM | 93.5
sgRNA knockout: sgATF3, 100 nM | 76.593
sgRNA knockout: sgATF3, 1000 nM | 51.4
sgRNA knockout: sgATF3, 10000 nM | 39.3
sgRNA knockout: sgATF4, 10 nM | 95.5
sgRNA knockout: sgATF4, 100 nM | 75.84
sgRNA knockout: sgATF4, 1000 nM | 47
sgRNA knockout: sgATF4, 10000 nM | 34.1
sgRNA knockout: sgATF6, 10 nM | 95
sgRNA knockout: sgATF6, 100 nM | 62.7
sgRNA knockout: sgATF6, 1000 nM | 46.4
sgRNA knockout: sgATF6, 10000 nM | 43.4
sgRNA knockout: sgATG7, 10 nM | 101
sgRNA knockout: sgATG7, 100 nM | 74.1
sgRNA knockout: sgATG7, 1000 nM | 52.7
sgRNA knockout: sgATG7, 10000 nM | 33.6
sgRNA knockout: sgERN1, 10 nM | 98.7
sgRNA knockout: sgERN1, 100 nM | 75.08
sgRNA knockout: sgERN1, 1000 nM | 52.3
sgRNA knockout: sgERN1, 10000 nM | 34.2
sgRNA knockout: sgHSF1, 10 nM | 87.8
sgRNA knockout: sgHSF1, 100 nM | 77.6
sgRNA knockout: sgHSF1, 1000 nM | 56.9
sgRNA knockout: sgHSF1, 10000 nM | 35
sgRNA knockout: sgHSF2, 10 nM | 103
sgRNA knockout: sgHSF2, 100 nM | 83.9
sgRNA knockout: sgHSF2, 1000 nM | 50.5
sgRNA knockout: sgHSF2, 10000 nM | 35.7
sgRNA knockout: sgKEAP1, 10 nM | 114
sgRNA knockout: sgKEAP1, 100 nM | 74.8
sgRNA knockout: sgKEAP1, 1000 nM | 56.7
sgRNA knockout: sgKEAP1, 10000 nM | 36.2
sgRNA knockout: sgNFE2L2, 10 nM | 91.7
sgRNA knockout: sgNFE2L2, 100 nM | 78.2
sgRNA knockout: sgNFE2L2, 1000 nM | 50.2
sgRNA knockout: sgNFE2L2, 10000 nM | 33.5
sgRNA knockout: sgSLC35F2, 10 nM | 89.5
sgRNA knockout: sgSLC35F2, 100 nM | 79.1
sgRNA knockout: sgSLC35F2, 1000 nM | 49.9
sgRNA knockout: sgSLC35F2, 10000 nM | 36.3
sgRNA knockout: sgXBP1, 10 nM | 103
sgRNA knockout: sgXBP1, 100 nM | 73.7
sgRNA knockout: sgXBP1, 1000 nM | 50.3
sgRNA knockout: sgXBP1, 10000 nM | 33.1
